Drawing on a protein production outcome set (Wang et al. 2014), this text covers protein production for 3 sequences.

The data set can be described thus: label from the status in PepcDB records.
“MSADVERVLIQLQDEAGEVLGSPFDVPLDISPDKLQLVCNALLQKEEPVPFLFFVKDAELVSSLGSCIQTLGLETEQVLPVVYQPQAVFRVRAVARCTSSLEGHTEAVISVAFSPTGKYLASGSGDTTVRFWDLSTETPHHTSRGHTHWVLSIAWSPDGKKLASGCKNSQIFLWDPVTGKQIGKTLTGHTKWITWLCWEPLHLNPECRYLASTSKDCTIRIWDTVLGRYDKILTGHTHSVTCVKWGGDGLLYTSSQDRTIKVWRAKDGVQCRTLQGHAHWVNTLALSTDYVLRTGAFEPANATINPQDLTGSLEEIKEKALKRYNSVRGEGHERLVSGSDDFTMFLWNPAEDKKPVARLTGHQALVNEVLFSPDTRLIASASFDKSIKIWDGKTGKYLNSLRGHVGPVYQVAWSADSRLLVSGSSDSTLKVWDIKTGKLNADLPGHADEVFAVDWSPDGQRVASGGKDKCLRIWRK”: the protein production result is recorded as “not failed”.

In the case of “MSDIQHQRMVTLCDDLKFLAVTDVYADLADAAAKQESSYIDYLEQVLKAENDVRQGRSRHTMAKLAGFPAIKTLEDYDFDFATGAPKQRILDLSAMAFLERRENVILLGPSGTGKTHLAIALGYRATQCGVKVRFISAADLMLQLESAQRQGRYKEVMRRSVLGPRLLIIDEIGYLPFSETQANLFFQVIAKRYETGSVILTSNLSFGEWEQAFGGNTALTSAMLDRLLHHAHVIQIRGDSYRLKEKRRAGILGQQLPTPQMDDLEHHHHHH”, the protein production result is given as “not failed”. With “SGGVTSSIAAKFAFFPPTPPSYEVIADDSCGGRLYIPEIPRRDDVDILKLRTRCGNEIVAVYVKHSKANGTLLYSHGNAADLGQMFELFVELSNRLRVNLMGYDYSGYGQSTGQASECNTYADIEASYKCLKEKYGVEDDQLIVYGQSVGSGPTVDLASRTPNLRGVVLQCPILSGMRVLYPVKCTYWFDIYKNIDKIGSVTCPVLVIHGTADEVVDWSHGKRLWELSKEKYEPLWISGGGHCDLELYPDFIRHLKKFVVSLGNKQAEQAPT”, the protein production result was “failed”.
